In the assay the target is T1, GFP-tagged Ref(2)P (Refractory to sigma P, Drosophila p62) (Drosophila) (UniProt P14199).
T1 sequence: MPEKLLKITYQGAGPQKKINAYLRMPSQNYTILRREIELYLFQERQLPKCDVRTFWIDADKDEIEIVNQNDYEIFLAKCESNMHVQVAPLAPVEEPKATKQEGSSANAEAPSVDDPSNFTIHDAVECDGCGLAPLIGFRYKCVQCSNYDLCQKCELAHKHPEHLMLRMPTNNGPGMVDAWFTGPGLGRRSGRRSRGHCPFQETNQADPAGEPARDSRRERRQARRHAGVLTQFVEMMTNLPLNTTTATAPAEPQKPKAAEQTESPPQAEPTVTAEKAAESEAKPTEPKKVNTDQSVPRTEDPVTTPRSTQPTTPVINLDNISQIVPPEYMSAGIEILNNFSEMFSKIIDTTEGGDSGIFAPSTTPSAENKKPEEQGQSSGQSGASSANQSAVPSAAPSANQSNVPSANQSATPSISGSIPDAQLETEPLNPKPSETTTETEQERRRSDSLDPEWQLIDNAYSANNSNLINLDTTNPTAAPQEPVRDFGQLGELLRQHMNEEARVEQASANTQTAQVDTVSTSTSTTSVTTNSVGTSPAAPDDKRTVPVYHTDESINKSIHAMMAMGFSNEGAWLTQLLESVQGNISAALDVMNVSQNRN
Kind of assay: co-IP.

No constants are given. Whether binding was seen depends on the method and setting. Binding seen in cells or lysates may run through a third protein. Some entries that bind do so weakly or less than the wild type. Sequences can lack the tags named with a protein.

B1: Myc-tagged dYPEL (Drosophila YPEL) (protein, UniProt Q9W2X7 1-114)
chain: MVKTFQAYLPSTNRTYSCVHCRAHLASHDELISKSFQGSQGPAYLFNSVVNVACGQTEERVLLTGLHAVADIYCECCKTPLGWKYEHAYESSQKYKEGKFIIELAHMIKENGWD
As for B1, the binding result is given as “binds”.
